For 41 molecules, activity change, negative = inhibition results are on record in PubChem BioAssay AID1347431 (National Center for Advancing Translational Sciences (NCATS), 2020).

Among all 1,200 compounds or so, fewer than 10 were called active. Calls follow the shape of the dose curve; as a rule, active = well fitted curve in the direction sought with a large enough effect; inconclusive = small, poorly fitted or top-dose-only effect, or another doubt; inactive = no such curve, though single readings can be large or run the other way. This is one part of the list.

This assay in a line: Confirmatory qHTS assay for inhibitors of Activation Induced Cytidine Deaminase (AID): UDG signals. Also: 0% is about no effect. Particulars: UDG coupled enzyme activity counter-screen; at 115 µM (top of the series) unless noted. The source says: Assay Provider (PI) Patricia Gearhart Ph.D.
National Institute on Aging
National Institute of Health (NIH), Bethesda, MD
Assay Provider (PI) Rahul Kohli Ph.D.
Perelman School of Medicine
University of Pennsylvania, Philadelphia, PA
Activation-Induced Deaminase (AID) is a cytosine deaminase which converts cytosine into uracil within stretches of ssDNA. The presence of uracil in DNA initiates a cascade of mutagenic DNA repair to introduce point mutations and DNA double strand breaks. Specific targeting of AID to the immunoglobulin heavy chain loci (Igh) promotes mutagenesis in the antibody variable region for somatic hypermutation (SHM) or switch regions leading to class switch recombination (CSR). However, AID also plays a role in accumulating unnecessary mutations across the genome. Mis-targeting of AID results in the initiation of tumor development and leads to greater drug resistance among cancer cells when continually expressed. To identify an AID inhibitor, a small molecule library will be screened in collaboration with NCATS core facility at NIH. To confirm biological function, inhibitors will be examined in an in vitro murine B-cell activation assay and subsequent secondary validation screens. Top molecules will be further screened to identify inhibitory efficacy against a wild type primary splenocytes assay. Using these approaches, we hope to identify a small molecule with great efficacy and low toxicity for use as a molecular probe to further characterize AID's intricacies, or even as a therapeutic.
A FRET based analysis of cytosine deamination, was developed to identify potential inhibitors of AID catalytic activity. This screen has two signal output, Read 1 evaluates the AID inhibition response. The second readout (Read 2) evaluates UDG response and is uses as a counterscreen to exclude false positive inhibitors. Inhibition in AID and inactivity in the UDG signal is the desired outcome for this assay.
SEQUENCE No. (e.g., 1, 2, 3, etc.); […] (e.g., Cells, Incubation, Reagent, etc.); VALUE; DESCRIPTION
1a; Reagent; 3 uL; [4/3x] 1 uM AID/2.67 U/mL UDG
1b; Reagent; 3 uL; 2 U/mL UDG
1c; Reagent; 3 uL; 1 uM AID
2a; Compound; 46 nL; Follow-up plates (0.64 uM - 10 mM)
2b; Control; 46 nL; ATA ([…] - 10 mM)
3; Time; 10 min; incubation at room temperature
5; Time; 4 hr; incubation at room temperature
6; Reagent; 4 uL; [2x] 250 mM NaOH
7; Time; 15 sec; centrifuge at 1000 rpm
8; Time; 30 min; incubation at room temperature
9a; Detection; fluorescence (Read 1: AID); EnVision (PerkinElmer) plate reader, 540 excitation and 590 emission filters
9b; Detection; fluorescence (Read 2: UDG); EnVision (PerkinElmer) plate reader, 560 excitation and 665 emission filters
NOTES (numbers refer to sequence above)
1a; Reagents were dispensed in a medium-binding black solid-bottom Greiner plates (789176F) using a BioRptr liquid dispenser. Dispense 3 uL of [4/3x] 1 uM AID (provided by Kohli lab) and [4/3x] 2 U/mL UDG (NEB M0280L) into columns 1, 2, 5 to 48.
1b; Dispense 3 uL of [4/3x] 2 U/mL UDG into column 3.
1c; Dispense 3 uL of [4/3x] 1 uM AID into column 4.
2a; Compound (7-points [uM]: 0.64; 3.2; 16; 80; 400; 2,000; 10,000; […]) double pin-transferred (Dip Factor = 2) using the Kalypsys (Wako USA) pintool equipped with a 1536 pinhead for a final concentration range of 7.32 nM - 114 uM.
2b; 10 mM Aurintricarboxylic Acid (Sigma A1895) (ATA, 8-point, n = 2, 1:2.5 dilution in column 2) double pin-transferred (Dip Factor = 2) using the Kalypsys (Wako USA) pintool equipped with a 1536 pinhead for a [final] range of 186 nM - 114 uM.
3; Room temperature incubation.
4; Dispense 1 uL of substrate mixture from the Kohli lab [4x] […] DJC20 and [4x] 250 nM DJC23 into columns 1 to 48 .
5; Room temperature incubation.
6; Dispense 4 uL of substrate mixture [2x] 250 mM NaOH into columns 1 to 48.
7; Centrifugation step to remove bubbles.
8; Room temperature incubation
9a; Fluorescence signal (column label AID) was read using the EnVision plate reader. […]
In general terms: Quantitative high-throughput screening tests each substance at several concentrations.
For the molecule `O=C(CCS(=O)(=O)c1nc(-c2cccs2)cc(C(F)(F)F)n1)Nc1ccc(OC(F)(F)F)cc1`, the activity change, negative = inhibition was inactive: 0.452%.

Regarding `CCOC(=O)C1CCN(c2nc3c(S(=O)(=O)c4ccccc4)nnn3c3ccsc23)CC1`, the activity change, negative = inhibition is inactive: 7.1%.

As to `CCOc1ccccc1NC(=O)CSc1nc2ccccc2c2nc(CCn3cncc3C)nn12`, the activity change, negative = inhibition was inactive: 0.873%.

On to `COc1ccc(OCCn2c(C3CC(=O)N(c4ccc(F)cc4)C3)nc3ccccc32)cc1` (stereo unspecified), for which the activity change, negative = inhibition was inactive: 0.474%.

Consider `Cc1cc(C)cc(OCC(=O)NCC(c2ccc(Cl)cc2)N2CCCCC2)c1` (stereo unspecified), for which the activity change, negative = inhibition was inactive: -1.03%.

On to `CCc1ccc(CN(Cc2ccco2)C(=O)c2ccccc2Cl)cc1`, for which the activity change, negative = inhibition was inactive: -8.01%.

In the case of `Cc1cccc(Cn2c(SCc3ccc(C(=O)N4CCCCCC4)cc3)nc3ccncc32)c1`, the activity change, negative = inhibition was inactive: 1.99%.

Regarding `COc1cccc(Cn2cc(C(=O)c3ccccc3)c(=O)c3cc4c(cc32)OCO4)c1`, the activity change, negative = inhibition was inactive: 1.86%.

For `COc1ccc(OC)c(NC(=O)Cn2c(=O)cc(-c3ccccc3)c3c(C)nn(C)c32)c1`, the activity change, negative = inhibition was inactive: 7.45%.

As for `Cc1cccc(N2CCN(C(=O)CS(=O)(=O)Cc3nc(-c4ccccc4C)oc3C)CC2C)c1` (stereo unspecified), the activity change, negative = inhibition is inactive: -0.78%.

Regarding `Cc1nc2c(C(=O)NC(C)c3ccccc3)cnn2c(C)c1Cc1ccccc1` (stereo unspecified), the activity change, negative = inhibition is inactive: -7.29%.

As for `CCn1cc(C(=O)NCc2ccccc2)c(=O)c2cc(S(=O)(=O)N3CCCCCC3)ccc21`, the activity change, negative = inhibition was inactive: -12.6%.

`N#C/C(=C\c1ccc(-c2cc(Cl)ccc2Cl)o1)C(=O)Nc1ccccc1C(=O)O`: the activity change, negative = inhibition was inactive: 5.36%.

For the molecule `CCN1CCN(CCCNC(=O)c2ccc3c(c2)sc2nc(-c4ccc(OC)cc4)cn23)CC1`, the activity change, negative = inhibition is inactive: -0.0337%.

As for `COc1cc(/C=C(\C#N)C(=O)Nc2nnc(C(F)(F)F)s2)ccc1OCc1ccc(C(F)(F)F)cc1C(F)(F)F`, the activity change, negative = inhibition was inactive: -7.34%.

As to `CCn1c(SCc2ccccc2F)nc(=O)c2c(C(=O)OC)cc(C3CC3)nc21`, the activity change, negative = inhibition is inactive: 5.62%.

For the molecule `Cc1cc(C)c(NC(=O)CSc2ncc(S(=O)(=O)c3ccc(C(C)(C)C)cc3)c(=O)[nH]2)c(C)c1`, the activity change, negative = inhibition was inactive: 7%.

For `Cc1ccc(Cl)cc1NC(=O)CSc1nc(C)c(C)c(C)c1C#N`, the activity change, negative = inhibition was inactive: 2.55%.

Take `COc1ccc(OC)c(CNC(=O)CSc2c3c(nc4cc(Cl)ccc24)CCCC3)c1`: the activity change, negative = inhibition is inactive: 2.75%.

For the molecule `Cc1nc2c(C(=O)NCCc3ccc(Cl)cc3)cnn2c(C)c1Cc1ccc(F)cc1`, the activity change, negative = inhibition was inactive: -12.3%.

Regarding `COc1ccc(C(=O)Nc2nc3n(n2)C(c2ccc(Cl)cc2)C=C(c2ccccc2)N3)cc1OC` (stereo unspecified), the activity change, negative = inhibition is inactive: 3.15%.

With `Cc1ccc(CSC2=Nc3ccccc3C3=NC(CC(=O)NCc4ccc5c(c4)OCO5)C(=O)N23)cc1` (stereo unspecified), the activity change, negative = inhibition is inactive: -6.61%.

Turning to `COc1ccc(OC)c(NC(=O)Cn2c(=O)cc(C)c3c(C)nn(-c4cccc(Cl)c4C)c32)c1`, the activity change, negative = inhibition was inactive: 10.9%.

Regarding `O=C(NCCc1ccc(Cl)cc1)c1ccc2c(c1)N(Cc1ccc(Cl)cc1)C(=O)CS2`, the activity change, negative = inhibition was inactive: -0.445%.

In the case of `O=S1(=O)c2ccccc2N(Cc2ccc(Cl)cc2)c2ccccc21`, the activity change, negative = inhibition was inactive: 3.98%.

Turning to `COc1cccc(C(=O)Nc2ccc3oc(-c4cccc5c(Br)cccc45)nc3c2)c1`, the activity change, negative = inhibition is inactive: 5.57%.

Take `Cc1cc(Cl)ccc1OCC(=O)N(Cc1ccco1)Cc1ccccc1F`: the activity change, negative = inhibition was inactive: -8%.

With `COc1ccc(NCc2cccn2-c2nnc(N3CCCCCC3)s2)cc1`, the activity change, negative = inhibition is inactive: -2.84%.

For the molecule `CC(=O)c1ccc(NC(=O)C2CCN(c3nnc(C)c4c(C)n(-c5ccccc5)nc34)CC2)cc1`, the activity change, negative = inhibition is inactive: -10.7%.

In the case of `CCCCn1c(CNC(=O)C23CC4CC(CC(C4)C2)C3)nnc1SCC(=O)Nc1ccc(C)cc1`, the activity change, negative = inhibition is inactive: -9.95%.

Consider `Cn1c(=O)c2sccc2n2c(CCCC(=O)Nc3ccc(Oc4ccccc4)cc3)nnc12`, for which the activity change, negative = inhibition was inactive: -1.79%.

For `COc1ccc(C(=O)c2cn(Cc3ccccc3F)c3cc4c(cc3c2=O)OCCO4)cc1OC`, the activity change, negative = inhibition is inactive: 5.33%.

As for `COc1ccc(C(=O)c2sc3nc4c(c(C(F)(F)F)c3c2N)CN(C(C)=O)CC4)cc1OC`, the activity change, negative = inhibition was inactive: -9.61%.

Turning to `Cc1ccc(C2=NN(CC(=O)NCCN(CC(C)C)CC(C)C)C(=O)CC2)cc1`, the activity change, negative = inhibition is inactive: -12.8%.

Take `CC(C)n1c(SCC(=O)Nc2ccc(F)cc2)nc2c(oc3ccccc32)c1=O`: the activity change, negative = inhibition is inactive: -8.77%.

For `CCN(c1cccc(C)c1)S(=O)(=O)c1nnc(NC(=O)c2ccccc2Cl)s1`, the activity change, negative = inhibition is inactive: 0.737%.

With `COc1ccc(-c2cn3cccnc3n2)cc1NC(=O)c1cc(C)cc(C)c1`, the activity change, negative = inhibition is inactive: 3.16%.

Take `COc1ccc(CCNC(=O)Cn2c(=O)c3cccn3c3ccc(F)cc32)cc1OC`: the activity change, negative = inhibition is inactive: 13.5%.

With `Cc1ccc(Nc2c3c(nc4nc(-c5cccs5)nn24)CCCC3)cc1F`, the activity change, negative = inhibition was inactive: -0.603%.

As to `COc1ccc(N2C(=O)CSC23C(=O)N(Cc2cccc(C(F)(F)F)c2)c2ccccc23)cc1` (stereo unspecified), the activity change, negative = inhibition was inactive: -6.88%.

On to `CC(=O)[C@]1(O)Cc2c(O)c3c(c(O)c2[C@@H](O[C@H]2C[C@H](N)[C@H](O)[C@H](C)O2)C1)C(=O)c1ccccc1C3=O`, for which the activity change, negative = inhibition is inactive: 65.3%.
